Measurements from paper PMC7253607.
These are yes or no findings as the source states them, for the method shown. Where a sequence is shown, tags or fusion partners need not be part of it.

Biological target: T1, L. monocytogenes SpxA1 fused to the T25 domain (SpxA1-T25) (Listeria monocytogenes) (UniProt Q9RGX0)
T1 sequence: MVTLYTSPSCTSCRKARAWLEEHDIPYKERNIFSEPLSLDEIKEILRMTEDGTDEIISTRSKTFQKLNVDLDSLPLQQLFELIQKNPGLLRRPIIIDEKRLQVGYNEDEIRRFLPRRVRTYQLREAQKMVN
Assay: two-hybrid; bacterial adenylate cyclase two-hybrid (BACTH) in E. coli BTH101 with one T18 and one T25 plasmid; overnight cultures in LB broth at 37°C; beta-galactosidase (ONPG) read at 28°C, Miller units

Substance: T18 domain of Bordetella pertussis adenylate cyclase alone (domain or fragment)
- binding: no binding
